Measurements published in patent US20260042835A1.
No constants are given. Whether binding was seen depends on the method and setting. Some entries that bind do so weakly or less than the wild type.

Chains of the proteins cited; added tags and fusions are not shown. Residues count along the entry.
UniProt Q8NHJ6, residues 22-448: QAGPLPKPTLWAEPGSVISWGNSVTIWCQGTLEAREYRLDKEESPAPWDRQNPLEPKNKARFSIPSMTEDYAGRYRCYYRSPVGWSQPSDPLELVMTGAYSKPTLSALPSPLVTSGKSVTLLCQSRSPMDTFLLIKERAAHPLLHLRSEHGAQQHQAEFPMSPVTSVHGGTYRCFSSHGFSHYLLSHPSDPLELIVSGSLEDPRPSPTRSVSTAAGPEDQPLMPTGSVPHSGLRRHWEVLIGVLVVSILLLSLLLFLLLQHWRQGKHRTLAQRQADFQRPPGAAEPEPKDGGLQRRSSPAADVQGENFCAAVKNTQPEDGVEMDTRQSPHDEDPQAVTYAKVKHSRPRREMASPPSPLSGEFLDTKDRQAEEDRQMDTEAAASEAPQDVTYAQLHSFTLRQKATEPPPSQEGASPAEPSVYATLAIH

Biological target: human ILT3 (immunoglobulin-like transcript 3) on circulating myeloid cells in blood (human) (UniProt Q8NHJ6)
Experiment: receptor occupancy in blood samples of solid tumor trial participants, in vivo dosing Q3W

B1: Humanized anti-ILT3 mAb (52B8 VH1 M64V/VL5 N34Q) IgG4 S228P/Kappa (antibody, V domains shown)
VH: EVQLVESGGGLVQPGGSLRLSCAASGFTFSNYGMSWVRQAPGKGLEWVATISGGGDYTNYPDSVRGRFTISRDNAKNSLYLQMNSLRAEDTAVYYCGRRLWFRSLYYAMDYWGQGTLVTVSS
VL: DIQLTQSPSSLSASVGDRVTITCRASEKVDSFGQSFMHWYQQKPGKAPKLLIYLTSNLDSGVPSRFSGSGSGTDFTLTISSLQPEDFATYYCQQNNEDPYTFGQGTKLEIKR
**Q.** Which binding does the source give for B1 here?
**A.** binds
